Laboratory results published in PubChem BioAssay AID1487 (National Center for Advancing Translational Sciences (NCATS), 2009).
Some of the results follow. Further columns of the screen follow, without active or inactive calls. The list favours compounds with an active or inconclusive main result. Potencies come from curve fits of mixed quality, noted in brackets.

Test: qHTS Assay for Modulators of Lamin A Splicing
Conditions: HeLa LMNA splicing GFP/RFP minigene ratio, 48 h
How it was run: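 S3 HeLa cells stably expressing lamin A-EGFP splicing minigene plus DsRed2, 600 cells/well, 48 h compound exposure at 37C. Laser-scanning cytometry; analysed as GFP (500-530 nm)/RFP (575-640 nm) total intensity ratio; 0.5% DMSO vehicle.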

[1] = measured here: RFP viability control channel
[2] = measured here: GFP splicing reporter channel

| Compound | AC50 [1] | AC50 [2] |
| --- | --- | --- |
| S=C(NCc1ccco1)Nc1cc(Cl)c(Cl)cc1Cl | 12.6 µM [rising, partial curve] |  |
| Cc1ccccc1CNC(=O)C(=O)NCC(c1ccco1)S(=O)(=O)c1cccs1 (stereo unspecified) | 11.2 µM [falling, partial curve, poor fit] | 11.2 µM [falling, partial curve] |
| COc1cc2c(cc1NC(=O)Nc1ccccc1)oc1ccccc12 |  | 0.0282 µM [falling, single point] |
| CCc1cc(C(=O)NNC(=S)NC(C)c2ccccc2)cs1 (stereo unspecified) | 22.4 µM [rising, single point] |  |
| COc1ccc(C(=O)NCc2ccc(N3CCN(C(=O)OC(C)(C)C)CC3)cc2)cc1 | 35.5 µM [rising, single point] |  |
| O=C(Nc1nccs1)c1sc2ccccc2c1Cl | 11.2 µM [rising, partial curve] |  |
| CC(=O)NCCOc1nc(N2CCCCC2)nc(N2CCCCC2)n1 | 0.0447 µM [falling, full curve, poor fit] |  |
| C=CCNC(=S)NNC(=O)c1ccc(OCCCC)cc1 | 31.6 µM [rising, single point] |  |
| Cn1c(SCc2nnc(-c3ccccc3Br)o2)nc2sc3c(c2c1=O)CCC3 | 12.6 µM [rising, partial curve] | 12.6 µM [rising, partial curve] |
| Cn1c(=O)oc2cc(S(=O)(=O)CCC(=O)N3CCN(c4cccc(Cl)c4)CC3)ccc21 | 2.24 µM [rising, partial curve, poor fit] |  |
| O=C(/C=C/c1cccc([N+](=O)[O-])c1)OC1CCCCC1=O (stereo unspecified) | 0.224 µM [falling, full curve, poor fit] |  |
| COc1ccc(CC(=O)N/N=C(\C)c2ccccn2)cc1 | 22.4 µM [rising, partial curve] | 0.178 µM [rising, full curve, poor fit] |
| O=C(N/C(=C/c1cccc(Br)c1)c1nc(=S)[nH][nH]1)c1ccccc1 | 35.5 µM [falling, single point] | 35.5 µM [falling, single point] |
| Cc1ccc(C)c(N2CCN(S(=O)(=O)c3cc(C(=O)Nc4ccc(Oc5ccccc5)cc4)ccc3F)CC2)c1 |  | 0.794 µM [falling, full curve, poor fit] |
| O=C(CCN1CCN(c2ccccc2F)CC1)c1ccc(Br)cc1 | 14.1 µM [rising, single point] |  |
| CCCn1c(C)cc(C(=O)COc2ccc(S(=O)(=O)N(CC)CC)cc2[N+](=O)[O-])c1C | 35.5 µM [rising, single point] | 35.5 µM [rising, single point] |

Record cards, from the list above.
Cc1ccccc1CNC(=O)C(=O)NCC(c1ccco1)S(=O)(=O)c1cccs1 (stereo unspecified) as listed: AC50 [1]: 11.2 µM [falling, partial curve, poor fit]; AC50 [2]: 11.2 µM [falling, partial curve]
CC(=O)NCCOc1nc(N2CCCCC2)nc(N2CCCCC2)n1 as listed: AC50 [1]: 0.0447 µM [falling, full curve, poor fit]
